These are yes or no findings as the source states them, for the method shown. For some assays here: In cells and extracts the contact can be indirect. Some results given as binding are weak or reduced against the parent protein; the word gives no strength.
How the values were obtained:
[1] = target: human complement component C9 (human (endogenous in serum)) (UniProt P02748); experiment: ELISA; pre-formed TCC in activated serum (1 in 50) captured on aE11 anti-C9 neo-specific antibody; detected with biotinylated anti-C7 mAbs or E2 anti-C8 and streptavidin-HRP
[2] = target: human complement component C7 (human (endogenous in serum)) (UniProt P10643); experiment: ELISA; serum activated in the presence of biotinylated mAb, captured on avidin-coated plates; components detected with goat anti-C5, -C6, -C7, -C8, -C9
[3] = target: human complement component C7 (human (endogenous in serum)) (UniProt P10643); experiment: co-IP; biotinylated anti-C7/C5b-7 mAb (2H2 in rat and human serum; 17E7, 59E7, 73D1 in human serum) present at 100 µg/ml during activation of serum with zymosan A and aggregated human IgG at 37°C; captured on avidin beads, washed in PBS, eluted in SDS buffer; western blot with goat anti-C5, -C6, -C7, -C8, -C9

The chains behind the UniProt entries cited, without tags or fusion partners. Where a name states a change or a piece, a line headed by the entry shows the natural chain unless it says otherwise. Residues count along the entry.
UniProt P02748, residues 22-559: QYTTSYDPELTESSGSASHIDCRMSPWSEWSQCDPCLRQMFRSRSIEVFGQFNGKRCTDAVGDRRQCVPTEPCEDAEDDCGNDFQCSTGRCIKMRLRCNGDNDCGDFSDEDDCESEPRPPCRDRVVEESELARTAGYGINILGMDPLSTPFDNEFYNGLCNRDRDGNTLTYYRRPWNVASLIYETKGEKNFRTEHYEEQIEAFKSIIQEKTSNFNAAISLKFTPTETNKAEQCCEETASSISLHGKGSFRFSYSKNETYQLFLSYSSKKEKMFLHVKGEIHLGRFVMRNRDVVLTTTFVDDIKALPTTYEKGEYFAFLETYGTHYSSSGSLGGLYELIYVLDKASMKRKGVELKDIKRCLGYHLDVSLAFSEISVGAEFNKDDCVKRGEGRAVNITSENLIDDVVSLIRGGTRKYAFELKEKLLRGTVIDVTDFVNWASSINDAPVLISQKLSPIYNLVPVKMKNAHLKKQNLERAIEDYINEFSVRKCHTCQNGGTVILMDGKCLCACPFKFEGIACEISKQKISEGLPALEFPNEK
UniProt P10643, residues 23-843: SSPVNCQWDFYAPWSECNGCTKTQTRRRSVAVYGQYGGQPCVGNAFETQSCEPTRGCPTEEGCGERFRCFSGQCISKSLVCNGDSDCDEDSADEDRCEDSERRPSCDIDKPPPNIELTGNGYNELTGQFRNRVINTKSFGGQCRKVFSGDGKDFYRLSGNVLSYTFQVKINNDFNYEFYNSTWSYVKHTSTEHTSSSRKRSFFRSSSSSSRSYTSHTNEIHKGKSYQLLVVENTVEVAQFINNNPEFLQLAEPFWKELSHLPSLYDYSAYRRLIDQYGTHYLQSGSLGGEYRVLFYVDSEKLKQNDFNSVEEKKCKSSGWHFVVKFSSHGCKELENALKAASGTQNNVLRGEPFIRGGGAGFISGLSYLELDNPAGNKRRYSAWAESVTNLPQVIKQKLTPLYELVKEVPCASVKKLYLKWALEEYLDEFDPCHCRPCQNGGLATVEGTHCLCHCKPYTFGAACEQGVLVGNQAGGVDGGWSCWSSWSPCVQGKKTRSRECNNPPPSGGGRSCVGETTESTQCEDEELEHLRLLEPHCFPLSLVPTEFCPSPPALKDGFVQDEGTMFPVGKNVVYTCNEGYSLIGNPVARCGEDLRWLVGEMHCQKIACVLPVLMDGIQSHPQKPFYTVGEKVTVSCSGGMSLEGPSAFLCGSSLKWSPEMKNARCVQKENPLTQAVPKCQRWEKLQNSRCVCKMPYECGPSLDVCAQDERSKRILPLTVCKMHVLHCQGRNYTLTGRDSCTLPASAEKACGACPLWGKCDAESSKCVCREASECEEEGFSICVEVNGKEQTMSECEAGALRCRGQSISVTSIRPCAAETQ
UniProt P13671, residues 22-934: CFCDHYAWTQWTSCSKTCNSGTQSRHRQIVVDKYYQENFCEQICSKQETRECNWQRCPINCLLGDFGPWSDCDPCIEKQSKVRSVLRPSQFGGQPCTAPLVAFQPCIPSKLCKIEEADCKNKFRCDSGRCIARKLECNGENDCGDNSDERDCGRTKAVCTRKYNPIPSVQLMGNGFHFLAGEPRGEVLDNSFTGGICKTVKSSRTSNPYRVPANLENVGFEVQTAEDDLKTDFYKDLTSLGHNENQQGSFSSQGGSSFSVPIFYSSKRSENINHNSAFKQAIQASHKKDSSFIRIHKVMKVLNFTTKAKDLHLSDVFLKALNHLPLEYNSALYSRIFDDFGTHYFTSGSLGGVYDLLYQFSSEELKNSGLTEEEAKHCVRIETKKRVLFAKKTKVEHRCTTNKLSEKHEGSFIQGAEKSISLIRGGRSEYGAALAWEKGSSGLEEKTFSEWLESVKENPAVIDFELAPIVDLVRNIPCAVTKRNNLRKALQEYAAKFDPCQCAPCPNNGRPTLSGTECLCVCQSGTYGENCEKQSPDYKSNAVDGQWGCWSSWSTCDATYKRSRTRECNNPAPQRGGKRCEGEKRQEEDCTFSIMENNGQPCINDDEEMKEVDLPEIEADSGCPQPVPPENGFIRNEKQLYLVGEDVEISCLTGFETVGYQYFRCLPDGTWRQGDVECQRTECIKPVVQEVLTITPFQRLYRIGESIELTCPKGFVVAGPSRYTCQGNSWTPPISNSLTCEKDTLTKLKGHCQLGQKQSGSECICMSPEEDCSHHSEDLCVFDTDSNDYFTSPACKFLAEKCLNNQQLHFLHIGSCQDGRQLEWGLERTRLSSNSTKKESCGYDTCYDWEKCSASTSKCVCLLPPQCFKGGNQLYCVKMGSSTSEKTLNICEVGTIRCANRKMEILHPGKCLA
UniProt P07357: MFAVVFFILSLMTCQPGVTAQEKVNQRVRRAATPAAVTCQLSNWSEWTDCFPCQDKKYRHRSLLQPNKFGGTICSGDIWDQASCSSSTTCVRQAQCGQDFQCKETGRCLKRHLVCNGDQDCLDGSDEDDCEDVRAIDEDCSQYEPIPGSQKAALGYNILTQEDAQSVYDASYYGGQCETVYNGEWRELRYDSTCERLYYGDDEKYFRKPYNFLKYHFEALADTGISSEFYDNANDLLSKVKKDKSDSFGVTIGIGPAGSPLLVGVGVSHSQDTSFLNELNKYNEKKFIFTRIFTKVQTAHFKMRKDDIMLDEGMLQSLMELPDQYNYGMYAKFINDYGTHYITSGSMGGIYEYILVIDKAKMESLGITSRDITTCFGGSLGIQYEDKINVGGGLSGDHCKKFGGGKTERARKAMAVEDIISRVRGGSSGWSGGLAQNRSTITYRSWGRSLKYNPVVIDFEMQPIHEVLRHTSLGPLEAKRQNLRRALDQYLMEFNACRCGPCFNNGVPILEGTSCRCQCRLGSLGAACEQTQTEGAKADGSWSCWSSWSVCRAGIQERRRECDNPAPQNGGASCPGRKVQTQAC

human complement component C7 (from UniProt P10643 23-843)
binding [1]: binds

human complement component C9 (from UniProt P02748 22-559)
binding [2]: binds | binding [3]: binds

human complement component C6 (from UniProt P13671 22-934)
binding [2]: binds | binding [3]: binds

human complement component C8 (from UniProt P07357 31-584; P07358 55-591; P07360 21-202) (complex)
binding [2]: binds | binding [3]: binds | binding [1]: binds
